# No constants are given. Whether binding was seen depends on the method and setting. In cells and extracts the contact can be indirect. Some binding calls cover weakened binding; strength is not graded here.
# Protein sequences, listed by entry. Tags and fused reporters are not part of them. Lines headed by an entry give the natural chain unless they say otherwise; changes in a name come on top. Residues count along the entry.
# UniProt Q9NZQ7, 19-290: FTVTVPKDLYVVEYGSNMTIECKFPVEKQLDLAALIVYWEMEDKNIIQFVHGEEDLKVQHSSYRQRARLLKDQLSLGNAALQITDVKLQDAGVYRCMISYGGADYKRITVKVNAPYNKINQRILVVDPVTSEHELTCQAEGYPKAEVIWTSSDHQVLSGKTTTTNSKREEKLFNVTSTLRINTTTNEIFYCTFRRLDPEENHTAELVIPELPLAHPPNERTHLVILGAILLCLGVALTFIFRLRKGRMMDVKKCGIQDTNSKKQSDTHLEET
# UniProt Q9Y4X5, whole entry: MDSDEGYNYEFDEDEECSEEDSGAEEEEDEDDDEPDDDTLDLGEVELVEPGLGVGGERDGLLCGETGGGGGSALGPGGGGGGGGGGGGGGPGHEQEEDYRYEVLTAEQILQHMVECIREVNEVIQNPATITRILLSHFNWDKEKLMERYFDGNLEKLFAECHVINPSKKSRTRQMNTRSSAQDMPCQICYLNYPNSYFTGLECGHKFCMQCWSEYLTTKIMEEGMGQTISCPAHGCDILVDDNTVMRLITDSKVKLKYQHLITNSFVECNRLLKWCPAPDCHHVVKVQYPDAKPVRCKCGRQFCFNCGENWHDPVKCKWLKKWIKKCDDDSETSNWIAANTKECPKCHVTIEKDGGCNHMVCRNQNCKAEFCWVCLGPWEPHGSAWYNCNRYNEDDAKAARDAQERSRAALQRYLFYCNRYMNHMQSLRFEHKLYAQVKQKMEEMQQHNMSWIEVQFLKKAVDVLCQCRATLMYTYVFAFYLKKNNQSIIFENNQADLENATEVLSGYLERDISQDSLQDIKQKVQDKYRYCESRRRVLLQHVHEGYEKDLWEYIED
# Target: Flag-PD-L1 (WT) (human) (UniProt Q9NZQ7)
# Test: co-IP; Flag-PD-L1 (WT or mutant) immunoprecipitated from transfected HEK293T lysates, blot for endogenous GSK3α/GSK3β or HA-ARIH1; RIPA buffer (1% Triton X-100, 100 mM Tris-HCl pH 8.8, 100 mM NaCl, 0.5 mM EDTA), 4 °C; cells with or without 10 μM ES-072, tunicamycin or 10 μM MG132
substance,measurement,value
HA-ARIH1 (WT) (from UniProt Q9Y4X5 1-557) (enzyme),binding,binds

# Source: publication PMC8058344, “ARIH1 signaling promotes anti-tumor immunity by targeting PD-L1 for proteasomal degradation” (Nature Communications, 2021)
